Assay: general procedure: solution-phase peptide synthesis; N-ethoxycarbonyl-2-ethoxy-1,2-dihydroquinoline
Details: coupling step

Row | Substance | step yield [%]
1 | N-[4-(11,12-Didehydrodibenzo[b,f]azocin-5 (6H)-yl)-4-oxobutanoyl]glycylglycyl-L-valyl-N-{6-[({[(11a′S)-11′-hydroxy-7′-methoxy-8′-(3-{[(11aS)-7-methoxy-2-(4-methoxyphenyl)-5-oxo-5,10,11,11a-tetrahydro-1H-pyrrolo[2,1-c][1,4]benzodiazepin-8-yl]oxy}propoxy)-5′-oxo-11′,11a′-dihydro-1′H-spiro[cyclopropane-1,2′-pyrrolo[2,1-c][1,4]benzodiazepine]-10′(5′H)-yl]carbonyl}oxy)methyl]pyridine-3-yl}-L-alaninamide | 48
2 | N-[4-(11,12-Didehydrodibenzo[b,f]azocin-5 (6H)-yl)-4-oxobutanoyl]glycylglycyl-L-prolyl-N-{4-[({[(11a′S)-11′-hydroxy-7′-methoxy-8′-(3- {[(11aS)-7-methoxy-2-(4-methoxyphenyl)-5-oxo-5,10,11,11a-tetrahydro-1H-pyrrolo[2,1-c][1,4]benzodiazepin-8-yl]oxy}propoxy)-5′-oxo-11′,11a′-dihydro-1′H-spiro[cyclopropane-1,2′-pyrrolo[2,1-c][1,4]benzodiazepine]-10′(5′H)-yl]carbonyl}oxy)methyl]phenyl}-L-isoleucinamide | 75
3 | N-[4-(11,12-Didehydrodibenzo[b,f]azocin-5 (6H)-yl)-4-oxobutanoyl]glycylglycyl-L-valyl-N-{4-[({[(11a′S)-11′-hydroxy-7′-methoxy-8′-[(5-{[(5aS)-10-methoxy-12-oxo-5a,12-dihydro-5H-indolo[2,1-c][1,4]benzodiazepin-9-yl]oxy}pentyl)oxy]-5′-oxo-11′,11a′-dihydro-1′H-spiro[cyclopropane-1,2′-pyrrolo[2,1-c][1,4]benzodiazepine]-10′(5′H)-yl]carbonyl}oxy)methyl]phenyl}-L-alaninamide | 44
4 | N-[4-(11,12-Didehydrodibenzo[b,f]azocin-5 (6H)-yl)-4-oxobutanoyl]glycylglycyl-L-valyl-N-{4-[({[(11a′S)-8′-[3-({(11aS)-2-[4-(dimethylamino)phenyl]-7-methoxy-5-oxo-5,10,11,11a-tetrahydro-1H-pyrrolo[2,1-c][1,4]benzodiazepin-8-yl}oxy)propoxy]-11′-hydroxy-7′-methoxy-5′-oxo-11′,11a′-dihydro-1′H-spiro[cyclopropane-1,2′-pyrrolo[2,1-c][1,4]benzodiazepine]-10′(5′H)-yl]carbonyl}oxy)methyl]phenyl}-L-alaninamide | 49
5 | N-[4-(11,12-Didehydrodibenzo[b,f]azocin-5 (6H)-yl)-4-oxobutanoyl]glycylglycyl-L-valyl-N-{4-[({[(11a′S)-8′-(3-{[(11aS)-2-{4-[(acetyloxy)methyl]phenyl}-7-methoxy-5-oxo-5,10,11,11a-tetrahydro-1H-pyrrolo[2,1-c][1,4]benzodiazepin-8-yl]oxy}propoxy)-11′-hydroxy-7′-methoxy-5′-oxo-11′,11a′-dihydro-1′H-spiro[cyclopropane-1,2′-pyrrolo[2,1-c][1,4]benzodiazepine]-10′(5′H)-yl]carbonyl}oxy)methyl]phenyl}-L-alaninamide | 54
6 | N-[4-(11,12-Didehydrodibenzo[b,f]azocin-5 (6H)-yl)-4-oxobutanoyl]glycylglycyl-L-valyl-N-{4-[({[(11a′S)-11′-hydroxy-8′-(3-{[(11aS)-2-(4-hydroxyphenyl)-7-methoxy-5-oxo-5,10,11,11a-tetrahydro-1H-pyrrolo[2,1-c][1,4]benzodiazepin-8-yl]oxy}propoxy)-7′-methoxy-5′-oxo-11′,11a′-dihydro-1′H-spiro[cyclopropane-1,2′-pyrrolo[2,1-c][1,4]benzodiazepine]-10′(5′H)-yl]carbonyl}oxy)methyl]phenyl}-L-alaninamide | 50
7 | N-[4-(11,12-Didehydrodibenzo[b,f]azocin-5 (6H)-yl)-4-oxobutanoyl]glycylglycyl-L-valyl-N-{4-[({[(11a′S)-11′-hydroxy-7′-methoxy-8′-(3-{[(5aS)-10-methoxy-12-oxo-5a,12-dihydro-5H-indolo[2,1-c][1,4]benzodiazepin-9-yl]oxy}propoxy)-5′-oxo-11′,11a′-dihydro-1′H-spiro[cyclopropane-1,2′-pyrrolo[2,1-c][1,4]benzodiazepine]-10′(5′H)-yl]carbonyl}oxy)methyl]phenyl}-L-alaninamide | 65
8 | N-[4-(11,12-Didehydrodibenzo[b,f]azocin-5 (6H)-yl)-4-oxobutanoyl]glycylglycyl-L-valyl-N-{4-[({[(11a′S)-11′-hydroxy-7′-methoxy-8′-[3-({(11aS)-7-methoxy-5-oxo-2-[4-(trifluoromethyl)phenyl]-5,10,11,11a-tetrahydro-1H-pyrrolo[2,1-c][1,4]benzodiazepin-8-yl}oxy)propoxy]-5′-oxo-11′,11a′-dihydro-1′H-spiro[cyclopropane-1,2′-pyrrolo[2,1-c][1,4]benzodiazepine]-10′(5′H)-yl]carbonyl}oxy)methyl]phenyl}-L-alaninamide | 76
9 | N-[4-(11,12-Didehydrodibenzo[b,f]azocin-5 (6H)-yl)-4-oxobutanoyl]glycylglycyl-L-valyl-N-{4-[({[(11a′S)-11′-hydroxy-7′-methoxy-8′-[(5-{[(11a'S)-7′-methoxy-5′-oxo-5′,11a′-dihydro-1′H-spiro[cyclopropane-1,2′-pyrrolo[2,1-c][1,4]benzodiazepine]-8′-yl]oxy}pentyl)oxy]-5′-oxo-11′,11a′-dihydro-1′H-spiro[cyclopropane-1,2′-pyrrolo[2,1-c][1,4]benzodiazepine]-10′(5′H)-yl]carbonyl}oxy)methyl]phenyl}-L-alaninamide | 66
10 | N-[4-(11,12-Didehydrodibenzo[b,f]azocin-5 (6H)-yl)-4-oxobutanoyl]glycylglycyl-L-valyl-N-{4-[({[(11a′S)-11′-hydroxy-7′-methoxy-8′-(3-{[7-methoxy-2-(6-methoxy-3-pyridinyl)-5-oxo-5,10,11,11a-tetrahydro-1H-pyrrolo[2,1-c][1,4]benzodiazepin-8-yl]oxy}propoxy)-5′-oxo-11′,11a′-dihydro-1′H-spiro[cyclopropane-1,2′-pyrrolo[2,1-c][1,4]benzodiazepine]-10′(5′H)-yl]carbonyl}oxy)methyl]phenyl}-L-alaninamide | 8
11 | N-{[(1R,8S)-Bicyclo[6.1.0]non-4-in-9-ylmethoxy]carbonyl}glycylglycyl-L-valyl-N-{4-[({[(11a′S)-11′-hydroxy-7′-methoxy-8′-[(5-{[(11aS)-7-methoxy-2-(4-methoxyphenyl)-5-oxo-5,10,11,11a-tetrahydro-1H-pyrrolo[2,1-c][1,4]benzodiazepin-8-yl]oxy}pentyl)oxy]-5′-oxo-11′,11a′-dihydro-1′H-spiro[cyclopropane-1,2′-pyrrolo[2,1-c][1,4]benzodiazepine]-10′(5′H)-yl]carbonyl}oxy)methyl]phenyl}-L-alaninamide | 60
12 | N-[4-(11,12-Didehydrodibenzo[b,f]azocin-5 (6H)-yl)-4-oxobutanoyl]glycylglycyl-D-prolyl-N-{4-[({[(11a′S)-11′-hydroxy-7′-methoxy-8′-(3-{[(11aS)-7-methoxy-2-(4-methoxyphenyl)-5-oxo-5,10,11,11a-tetrahydro-1H-pyrrolo[2,1-c][1,4]benzodiazepin-8-yl]oxy}propoxy)-5′-oxo-11′,11a′-dihydro-1′H-spiro[cyclopropane-1,2′-pyrrolo[2,1-c][1,4]benzodiazepine]-10′(5′H)-yl]carbonyl}oxy)methyl]phenyl}-L-isoleucinamide | 69
13 | N-[4-(11,12-Didehydrodibenzo[b,f]azocin-5 (6H)-yl)-4-oxobutanoyl]glycylglycyl-L-valyl-N-{4-[({[(11a′S)-11′-hydroxy-7′-methoxy-8′-(3-{[(11aS)-7-methoxy-2-(4-methoxyphenyl)-5-oxo-5,10,11,11a-tetrahydro-1H-pyrrolo[2,1-c][1,4]benzodiazepin-8-yl]oxy}propoxy)-5′-oxo-11′,11a′-dihydro-1′H-spiro[cyclopropane-1,2′-pyrrolo[2,1-c][1,4]benzodiazepine]-10′(5′H)-yl]carbonyl}oxy)methyl]phenyl}-L-alaninamide | 44
14 | N-[4-(11,12-Didehydrodibenzo[b,f]azocin-5 (6H)-yl)-4-oxobutanoyl]glycylglycyl-L-valyl-N-{4-[({[(11a′S)-11′-hydroxy-7′-methoxy-8′-(3-{[(11aS)-7-methoxy-5-oxo-2-(quinoxaline-6-yl)-5,10,11,11a-tetrahydro-1H-pyrrolo[2,1-c][1,4]benzodiazepin-8-yl]oxy}propoxy)-5′-oxo-11′,11a′-dihydro-1′H-spiro[cyclopropane-1,2′-pyrrolo[2,1-c][1,4]benzodiazepine]-10′(5′H)-yl]carbonyl}oxy)methyl]phenyl}-L-alaninamide | 71
15 | N-[4-(11,12-Didehydrodibenzo[b,f]azocin-5 (6H)-yl)-4-oxobutanoyl]glycylglycyl-D-valyl-N-{4-[({[(11a′S)-11′-hydroxy-7′-methoxy-8′-(3- {[(11aS)-7-methoxy-2-(4-methoxyphenyl)-5-oxo-5,10,11,11a-tetrahydro-1H-pyrrolo[2,1-c][1,4]benzodiazepin-8-yl]oxy}propoxy)-5′-oxo-11′,11a′-dihydro-1′H-spiro[cyclopropane-1,2′-pyrrolo[2,1-c][1,4]benzodiazepine]-10′(5′H)-yl]carbonyl}oxy)methyl]phenyl}-L-alaninamide | 65
16 | N-[4-(11,12-Didehydrodibenzo[b,f]azocin-5 (6H)-yl)-4-oxobutanoyl]glycylglycyl-L-valyl-N-{4-[({[(11a′S)-11′-hydroxy-7′-methoxy-8′-(3-{[(11aS)-7-methoxy-2-(4-methoxyphenyl)-5-oxo-5,10,11,11a-tetrahydro-1H-pyrrolo[2,1-c][1,4]benzodiazepin-8-yl]oxy}propoxy)-5′-oxo-11′,11a′-dihydro-1′H-spiro[cyclopropane-1,2′-pyrrolo[2,1-c][1,4]benzodiazepine]-10′(5′H)-yl]carbonyl}oxy)methyl]phenyl}-L-lysinamide | 67
